This passage reports inhibition results from article PMC6273065, “Synthesis, Molecular Modelling and Biological Evaluation of Novel Heterodimeric, Multiple Ligands Targeting Cholinesterases and Amyloid Beta” (Molecules, 2016).

Sequences of proteins named here, by UniProt entry; tags and fusion partners are left off. Residues count along the entry.
UniProt P05067, 672-713: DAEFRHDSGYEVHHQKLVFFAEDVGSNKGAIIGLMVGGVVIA

This assay addresses T1, Aβ1–42 (Homo sapiens, UniProt P05067).
T1 construct: Recombinant human HFIP-pretreated Aβ1–42 peptide; purchased Merck Millipore Lot number 2387442
The experiment in a line: Thioflavin-T fluorometric assay of self-induced Aβ1–42 aggregation. It is filed as biochemical. Conditions: read-out: Aβ1–42 Aggreg. % of inhibition. An excerpt: Mechanisms of Aβ aggregation remain unclear. Besides the self-induced assembly of Aβ, several other factors affect its aggregation, including metal ions, AChE [45], and oxidative stress. Therefore, we evaluated our compounds using the most versatile and commonly used Aβ1–42 aggregation Thioflavin T assay. Seven structurally diverse compounds were selected (one from each subseries) to test their ability to inhibit self-induced Aβ1–42 aggregation.
Thioflavin-T (ThT) fluorometric assay was performed to investigate the effect of the test compounds on the self-aggregation of Aβ1–42. […] Each sample was prepared in quadruplicate, and the DMSO was always at 3%. To quantify amyloid fibril formation, the ThT fluorescence was measured through the bottom of the plate every 180 s at an excitation wavelength of 440 nm and emission wavelength of 490 nm, with the medium continuously shaking between measurements using a 96-well microplate reader (Synergy™ H4, BioTek Instruments, Inc., Winooski, VT, USA). […] The fluorescence intensities at the plateau in the absence and presence of the test compounds were averaged, and the average fluorescence of the corresponding wells at t = 0 h was subtracted.

What is called inhibition is the relative decrease from the control value, in per cent. In the case of `COc1cc2c(cc1OC)C(=O)C(CC1CCN(Cc3ccccc3)CC1)C2` (stereo not shown) [Donepezil, reference compound], the inhibition at 10 µM amounted to 11.5 ± 4.51%.
